Data source: PubChem BioAssay AID504791 (Drosophila RNAi Screening Center, 2011)
Screen: 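Factors in Argonaute-based small RNA production and activity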 (primary screen). System: Drosophila S2-derived reporter cells. Reagent: long dsRNA against Drosophila genes, about 150-250 ng dsRNA per well (siRNA assay); about 80-120 ng (miRNA assay). Time to read-out: about 5 days (siRNA assay); about 4 days (miRNA assay). Challenge: copper sulfate induction of reporters: 25 µM (siRNA assay); 200 mM stated (miRNA assay), 1-2 days before reading. Read-out: 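Dual luciferase assay: Renilla to firefly signal ratio in each well, scaled to the mean ratio of its plate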. Units: stable assay Renilla, run 1 in luminescence; stable assay firefly, run 1 in luminescence. Rule for the call: 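First-pass picks had plate-scaled ratios over 1.5 for the siRNA assay, over 1.6 for the miRNA assay, or under 0.6; two distinct dsRNAs had to score alike on retest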.
In all, the deposit lists about 23,000 reagents; below is an unselected part of those that have a named target and a result. Over the whole deposit, 199 (0.86%) got an active call. 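Plate-scaled ratios behind the calls are not deposited; printed light signals are raw; many rows marked increased or decreased are still called inactive.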 The numbers tell different reagents against one gene apart. A plus sign joins genes that one reagent is predicted to hit. The record does not give: the direction of the score.

Target gene	reagent no.	stable assay Renilla, run 1	stable assay firefly, run 1	outcome
Cpr73D	1	8107	3.20e5	inactive
Rab9Db + Rab9D + Rab9Fa + 1 more	1	4431	3.30e5	inactive
Jheh3	1	10598	3.91e5	inactive
CG3402	1	11026	4.24e5	inactive
CG8237	1	7710	5.31e5	inactive
Art2	1	8131	4.37e5	inactive
CG34011	1	4771	2.98e5	inactive
CG11828	1	5856	3.53e5	inactive
CG11828	2	3851	3.85e5	inactive
ND1 (retired record)	1	4902	3.65e5	inactive
Nepl9	1	7489	3.70e5	inactive
ppan	1	7420	4.51e5	inactive
Ak6	1	6342	2.82e5	inactive
CG10920	1	5964	3.47e5	inactive
CG1701	1	6307	4.02e5	inactive
CR30409	1	9491	5.55e5	inactive
CG4119	1	12048	5.64e5	inactive
slou	1	7064	3.85e5	inactive
LpR1	1	7835	4.39e5	inactive
LpR1	2	6934	4.23e5	inactive
LpR1	3	7075	3.62e5	inactive
rdgBbeta	1	6288	3.10e5	inactive
CG2116	1	7999	5.53e5	inactive
pes	1	6252	3.26e5	inactive
CG4375	1	8631	5.14e5	inactive
Or85f	1	6932	2.99e5	inactive
Gas41	1	9417	2.24e5	inactive
Egfr	1	5278	3.08e5	inactive
Egfr	2	11186	1.01e6	inactive
mthl13	1	4804	3.62e5	inactive
CG34204	1	6051	5.39e5	inactive
cue	1	11124	6.40e5	inactive
Fadd	1	6774	3.18e5	inactive
Coop	1	11319	2.14e6	inactive

Targets listed so far whose gene name starts with R or r (2):
Target gene	reagent no.	stable assay Renilla, run 1	stable assay firefly, run 1	outcome
Rab9Db + Rab9D + Rab9Fa + 1 more	1	4431	3.30e5	inactive
rdgBbeta	1	6288	3.10e5	inactive
